Test results as given in patent US12729377B2, “RNAi agents and compositions for inhibiting expression of angiopoietin-like 3 (ANGPTL3), and methods of use” (Arrowhead Pharmaceuticals, Inc., priority 2017, dated 2026).
Some of these results come from one statement about several compounds together. In the oligonucleotide strings, read from the 5' end, every base follows the letter of its sugar. An asterisk marks phosphorothioate; unmarked linkages are phosphodiester. Other units and linkages are bracketed, terminal groups are in braces. A string of capitals states the bases alone. {NAG37} = tridentate N-acetyl-galactosamine targeting ligand, structure (NAG37)s; [invAb] = inverted abasic unit; m = 2'-O-methyl; f = 2'-fluoro

Tests used:
Type in all cases: in vivo
ANGPTL3 protein = experiment: Example 2: serum ANGPTL3 protein by ELISA in mice; conditions: day 29; single 3 mg/kg subcutaneous; C57bl/6 mice
Method: (§1) To assess the in vivo activity of ANGPTL3 RNAi agents that are designed to target different positions on the ANGPTL3 gene, six- to eight-week-old female C57bl/6 mice were used. Pre-dose serum samples were taken at day −1 after a four hour fast. At day 1, each mouse was given a single subcutaneous administration of 200 μl containing either 3 mg/kg (mpk) of an ANGPTL3 RNAi agent in D5W (dextrose in 5% water), or control (D5W) with no RNAi agent, according to the dosing groups recited in Table 7.
(§2) Each of the RNAi agents included a modified sequence and an N-acetyl-galactosamine-containing targeting ligand conjugated to the 5′ terminal end of the sense strand. (See Tables 3, 4, and 5 for modified sequences and targeting ligand structures). The injections were performed between the skin and muscle (i.e. subcutaneous injections) into the loose skin over the neck and shoulder area. Three (3) mice in each group were tested (n=3). Serum was collected on days 8, 13, 22, 29, and day 36 (for Groups 1 and 5-11 only). Mice were fasted for four hours prior to each collection. ANGPTL3 protein levels in serum were measured by ELISA assay (R&D Systems), according to the manufacturer's recommendations. Triglycerides, high-density lipoprotein (HDL), and total cholesterol in serum were measured on a Cobas® Integra 400 (Roche Diagnostics), according to the manufacturer's recommendations. […]

ANGPTL3 gene [1] = experiment: Example 4: serum total cholesterol in mice; conditions: day 29; single 1 mg/kg subcutaneous; C57bl/6 mice
Method: as §1, with “target additional” for “target different”, “either 1 mg/kg (mpk) or 0.5” for “either 3”, “Table 17.” for “Table 7.”
as §2, with “15,” for “13,”, “43 (Groups 1-3, 9,” for “36 (for Groups 1”, “11-13” for “5-11”, “Mice were fasted for four hours prior to each collection.” left out

ANGPTL3 gene [2] = experiment: Example 4: serum triglycerides in mice; conditions: day 29; single 1 mg/kg subcutaneous; C57bl/6 mice
Method: as §1, with “target additional” for “target different”, “either 1 mg/kg (mpk) or 0.5” for “either 3”, “Table 17.” for “Table 7.”
as §2, with “15,” for “13,”, “43 (Groups 1-3, 9,” for “36 (for Groups 1”, “11-13” for “5-11”, “Mice were fasted for four hours prior to each collection.” left out

Substance | reduction in ANGPTL3 protein compared to control (ANGPTL3 protein) | total cholesterol reduced (ANGPTL3 gene [1]) | triglyceride levels reduced (ANGPTL3 gene [2])
AD05307: RNAi agent duplex: antisense AM07001-AS, sense AM07000-SS (chain 1 mU*fU*mU*fGmAfAmUfUmAfAmUfGmUfCmCfAmUfGmGmG*mC; chain 2 {NAG37}*[invAb]*mGmCmCmCmAmUmGmGfAfCfAmUmUmAmAmUmUmCmAmAmA*[invAb]) | greater than 75% |  | 
AD05487: RNAi agent duplex: antisense AM07233-AS, sense AM07232-SS (antisense mU*fA*mC*fUmGfAmUfCmAfAmAfUmAfUmGfUmUfGmAfG*mU; sense {NAG37}*[invAb]*mAmCmUmCmAmAmCmAfUfAfUmUmUmGmAmUmCmAmGmUmA*[invAb]) |  | at least 31% | at least 28%
AD05488: RNAi agent duplex: antisense AM07235-AS, sense AM07234-SS (antisense mU*fA*mC*fUmGfAmUfCmAfAmAfUmAfUmGfUmUfGmAfG*mC; sense {NAG37}*[invAb]*mGmCmUmCmAmAmCmAfUfAfUmUmUmGmAmUmCmAmGmUmA*[invAb]) |  | at least 31% | at least 28%
